# The other results are listed elsewhere or left out. The exact form of the protein is not confirmed.
# Target: T1, ELF2 (UniProt Q15723)
# T1 sequence: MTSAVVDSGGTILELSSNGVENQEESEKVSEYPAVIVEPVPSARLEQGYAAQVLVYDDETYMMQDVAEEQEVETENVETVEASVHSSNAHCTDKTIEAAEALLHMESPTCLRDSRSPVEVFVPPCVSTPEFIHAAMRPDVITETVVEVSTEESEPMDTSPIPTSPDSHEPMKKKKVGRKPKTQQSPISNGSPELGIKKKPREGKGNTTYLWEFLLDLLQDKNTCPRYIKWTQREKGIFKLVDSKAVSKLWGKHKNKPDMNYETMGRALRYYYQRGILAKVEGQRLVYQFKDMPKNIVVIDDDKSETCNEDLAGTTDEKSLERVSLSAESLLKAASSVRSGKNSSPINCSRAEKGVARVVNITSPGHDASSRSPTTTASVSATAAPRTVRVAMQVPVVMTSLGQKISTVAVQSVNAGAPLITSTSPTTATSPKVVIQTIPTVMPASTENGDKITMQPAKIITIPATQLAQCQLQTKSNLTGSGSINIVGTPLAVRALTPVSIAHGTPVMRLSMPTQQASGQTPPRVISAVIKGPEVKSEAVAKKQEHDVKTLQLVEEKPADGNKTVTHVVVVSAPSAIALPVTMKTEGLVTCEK
# Assay: DAPPL (digital affinity profiling via proximity ligation, sequencing)
# Settings: 10 mM Tris-HCl pH 7.5, 50 mM NaCl, 1 mM DTT, 4% glycerol, room temperature, 30 min; GST-TFs on glutathione beads, 16-mer random dsDNA library, 0.1% …; high values mean tight binding; double strand, one strand shown; scale: fold enrichment (6-mer frequency, TF over GST control)
row,Sequence,binding signal
1,GCAACT,1.22
2,TGGATT,0.974
3,TATAGA,1.09
4,GATCTA,0.969
5,CATCTC,1.18
6,AAGTTA,1.24
7,ATAAGA,1.03
8,TATCAA,1.02
9,TCCTAG,1.31
10,GTTCTG,1.05
11,TAGAAA,1.03
12,AATGGA,1.02
13,TATGTG,1.06
14,GAGCTT,0.982
15,TCAATC,0.976
16,CCCCGA,1.08
17,AAAATG,1.18
18,GATCTG,0.89
19,TTTCGC,1.14
20,CTCCCC,1.32

row,Sequence,binding signal
1,AAAACG,1.19
2,TTATTC,1.37
3,TTGCTC,1.18
4,TAAGCG,0.997
5,AGGGCT,1
6,CAGATA,0.918
7,AAGCAA,1.09
8,GCTTAA,0.976
9,AACCTA,1.05
10,GATTTA,1.01
11,TTAGTG,0.829
12,GGCTTT,0.941
13,ACTGAA,1.15
14,GGTTAA,0.886
15,TTGTGC,1.15
16,CGAAGA,0.76
17,GCCTTA,1.12
18,GATTCG,0.93
19,AGTTAA,1.06
20,TGCGCA,1.09

# From paper PMC7862700
